Taken from: PubChem BioAssay AID1159597 (NIAID, 2016)
In all, the deposit lists 756 reagents; below is a part drawn at random. 140 of all reagents (19%) count as active. 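Calls mark clear shifts in either direction, lowered or raised; calls are per siRNA, gene-level medians over six siRNAs not deposited.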 Reagents against one gene are numbered here. Not stated in the record: the amount of reagent.

- Test: 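Which TLR pathway components are needed for LPS-driven TNF promoter activity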
- Cells: human THP-1 B5 reporter clone (monocytic leukaemia line), PMA-differentiated to macrophage-like cells
- Reagents: single siRNA against human genes
- Time to read-out: LPS for 4 h before read-out; assayed 48 to 72 h after siRNA transfection
- Conditions: LPS (Salmonella minnesota R595) for 4 h; concentration not given
- Measured: 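After 4 h LPS, firefly TNF promoter luciferase over renilla, as a plate median/MAD robust z-score averaged across replicates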
- Direction: TNF reporter z-score: higher = stronger TNF promoter activity after LPS
- Hit rule: In these data the active calls have TNF reporter z-score, replicate mean at about -1.5 or lower, or at about 1.53 or higher
- Meaning of the calls: active = clear shift in reporter, either direction; inactive = little shift in reporter

TNF reporter z-score, replicate mean, by gene symbol and reagent
MAP2K1 (mitogen-activated protein kinase kinase 1): #1 -0.661 inactive; #2 -0.0786 inactive; #3 -1.42 inactive; #4 0.0931 inactive; #5 0.261 inactive; #6 0.544 inactive
TAB2 (TGF-beta activated kinase 1 (MAP3K7) binding protein 2): #1 -0.956 inactive; #2 -1.04 inactive; #3 -1.24 inactive; #4 -1.57 active; #5 -2.23 active; #6 -1.03 inactive
TLR7 (toll like receptor 7): #1 -0.296 inactive; #2 -0.322 inactive; #3 -0.244 inactive; #4 -0.427 inactive; #5 -0.314 inactive; #6 0.52 inactive
TLR3 (toll like receptor 3): #1 -0.384 inactive; #2 -0.887 inactive; #3 -0.701 inactive; #4 -2.51 active; #5 0.0496 inactive; #6 0.171 inactive
IL6 (interleukin 6): #1 0.574 inactive; #2 -1.05 inactive; #3 -0.16 inactive; #4 -0.756 inactive; #5 -0.458 inactive; #6 0.233 inactive
AKT2 (AKT serine/threonine kinase 2): #1 -2.53 active; #2 -0.453 inactive; #3 -1.27 inactive; #4 -1.43 inactive; #5 -0.143 inactive; #6 1.61 active
CXCL9 (C-X-C motif chemokine ligand 9): #1 -1.95 active; #2 -0.778 inactive; #3 0.562 inactive; #4 -2.63 active; #5 -0.385 inactive; #6 0.616 inactive
PIK3CA: #1 0.405 inactive; #2 -0.212 inactive; #3 1.44 inactive; #4 -0.217 inactive; #5 -0.985 inactive; #6 0.44 inactive
ELK4 (ETS transcription factor ELK4): #1 -0.961 inactive; #2 -0.532 inactive; #3 0.361 inactive; #4 0.404 inactive; #5 -0.631 inactive; #6 -1.15 inactive
REL (REL proto-oncogene, NF-kB subunit): #1 -1.06 inactive; #2 -0.79 inactive; #3 0.13 inactive; #4 -0.492 inactive; #5 -0.197 inactive; #6 -0.654 inactive
JUN (Jun proto-oncogene, AP-1 transcription factor subunit): #1 -3.29 active; #2 -1.39 inactive; #3 -0.697 inactive; #4 -1.08 inactive; #5 -0.415 inactive; #6 -1.55 active
TNFAIP3 (TNF alpha induced protein 3): #1 -2.78 active; #2 -0.511 inactive; #3 -2.32 active; #4 -0.162 inactive; #5 1.2 inactive; #6 -1.14 inactive
MAP3K14 (mitogen-activated protein kinase kinase kinase 14): #1 0.599 inactive; #2 0.809 inactive; #3 -2.59 active; #4 -1.11 inactive; #5 0.977 inactive; #6 0.156 inactive

8 of these entries, reformatted:
gene symbol	reagent no.	TNF reporter z-score, replicate mean	Outcome
TLR7 (toll like receptor 7)	5	-0.314	inactive
TLR7 (toll like receptor 7)	6	0.52	inactive
TLR3 (toll like receptor 3)	1	-0.384	inactive
TLR3 (toll like receptor 3)	2	-0.887	inactive
TLR3 (toll like receptor 3)	3	-0.701	inactive
TLR3 (toll like receptor 3)	4	-2.51	active
TLR3 (toll like receptor 3)	5	0.0496	inactive
TLR3 (toll like receptor 3)	6	0.171	inactive
